Some of the results follow. Small differences around the control level are noise.
Compound: CN[C@@H]1C[C@H]2O[C@@](C)([C@@H]1OC)n1c3ccccc3c3c4c(c5c6ccccc6n2c5c31)C(=O)NC4 [staurosporine]
Experiment: log2 fold change of tryptic peptide abundance, ligand vs vehicle (limited proteolysis) (log2 ratio); higher = more trypsin-susceptible (destabilized)
Conditions: ligand concentration: 20 uM; sample: K562 cleared lysate; digestion: 4 min, 22 C (HT-PELSA RT4min, Orbitrap Astral)

Protein sequences, listed by entry. Tags and fused reporters are not part of them. Lines headed by an entry give the natural chain unless they say otherwise; changes in a name come on top.
UniProt Q96CB9: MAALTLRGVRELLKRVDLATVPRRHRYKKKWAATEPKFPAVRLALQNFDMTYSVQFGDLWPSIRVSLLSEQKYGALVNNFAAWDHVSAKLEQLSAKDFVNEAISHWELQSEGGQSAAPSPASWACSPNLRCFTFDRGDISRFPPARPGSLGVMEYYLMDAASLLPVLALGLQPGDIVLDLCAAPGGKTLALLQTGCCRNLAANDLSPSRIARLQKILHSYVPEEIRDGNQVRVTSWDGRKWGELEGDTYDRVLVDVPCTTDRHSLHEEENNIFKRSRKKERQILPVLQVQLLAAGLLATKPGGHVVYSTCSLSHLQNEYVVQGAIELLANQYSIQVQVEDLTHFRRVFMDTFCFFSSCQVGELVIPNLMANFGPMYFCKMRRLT
UniProt Q96D53: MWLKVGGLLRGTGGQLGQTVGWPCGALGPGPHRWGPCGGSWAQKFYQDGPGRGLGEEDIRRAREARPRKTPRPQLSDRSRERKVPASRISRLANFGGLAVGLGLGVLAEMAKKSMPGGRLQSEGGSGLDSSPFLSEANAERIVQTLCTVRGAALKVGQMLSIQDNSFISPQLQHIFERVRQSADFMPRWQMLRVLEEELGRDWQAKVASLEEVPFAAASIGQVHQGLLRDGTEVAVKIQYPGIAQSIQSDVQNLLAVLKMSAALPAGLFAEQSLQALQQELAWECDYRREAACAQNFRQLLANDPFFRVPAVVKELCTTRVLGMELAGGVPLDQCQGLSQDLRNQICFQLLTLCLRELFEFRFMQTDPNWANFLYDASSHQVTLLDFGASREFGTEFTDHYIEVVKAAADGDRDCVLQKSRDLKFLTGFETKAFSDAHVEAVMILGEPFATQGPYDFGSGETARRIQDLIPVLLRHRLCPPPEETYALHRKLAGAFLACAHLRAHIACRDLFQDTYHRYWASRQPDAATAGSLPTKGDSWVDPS
UniProt Q96FZ2: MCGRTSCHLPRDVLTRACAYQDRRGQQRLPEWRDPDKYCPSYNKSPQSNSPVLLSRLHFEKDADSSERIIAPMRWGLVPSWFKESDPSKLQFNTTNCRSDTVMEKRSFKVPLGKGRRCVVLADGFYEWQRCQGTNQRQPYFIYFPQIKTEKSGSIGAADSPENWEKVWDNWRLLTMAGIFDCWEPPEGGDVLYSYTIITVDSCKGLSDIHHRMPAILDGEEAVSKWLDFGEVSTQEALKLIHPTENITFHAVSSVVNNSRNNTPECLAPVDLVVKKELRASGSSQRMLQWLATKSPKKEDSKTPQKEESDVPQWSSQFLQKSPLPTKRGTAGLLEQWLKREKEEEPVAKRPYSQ
UniProt Q96B97, whole entry: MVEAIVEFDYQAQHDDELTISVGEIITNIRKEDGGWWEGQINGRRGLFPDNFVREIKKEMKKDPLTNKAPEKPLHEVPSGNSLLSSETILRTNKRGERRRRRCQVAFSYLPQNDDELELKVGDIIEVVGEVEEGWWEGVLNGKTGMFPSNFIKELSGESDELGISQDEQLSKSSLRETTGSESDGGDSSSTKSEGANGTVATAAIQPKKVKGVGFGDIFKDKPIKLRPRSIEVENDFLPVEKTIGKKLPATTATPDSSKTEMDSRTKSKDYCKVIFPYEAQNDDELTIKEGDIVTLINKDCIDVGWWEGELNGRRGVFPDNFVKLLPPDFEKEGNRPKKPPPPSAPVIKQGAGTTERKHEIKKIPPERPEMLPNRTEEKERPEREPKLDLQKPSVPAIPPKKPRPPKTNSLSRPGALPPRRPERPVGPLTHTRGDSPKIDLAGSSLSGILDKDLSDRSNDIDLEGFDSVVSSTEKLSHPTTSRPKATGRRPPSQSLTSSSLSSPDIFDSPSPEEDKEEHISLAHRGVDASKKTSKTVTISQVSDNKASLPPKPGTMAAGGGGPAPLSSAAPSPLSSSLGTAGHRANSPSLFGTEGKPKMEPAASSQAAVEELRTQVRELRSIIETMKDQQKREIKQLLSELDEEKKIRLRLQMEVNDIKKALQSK
UniProt Q93096: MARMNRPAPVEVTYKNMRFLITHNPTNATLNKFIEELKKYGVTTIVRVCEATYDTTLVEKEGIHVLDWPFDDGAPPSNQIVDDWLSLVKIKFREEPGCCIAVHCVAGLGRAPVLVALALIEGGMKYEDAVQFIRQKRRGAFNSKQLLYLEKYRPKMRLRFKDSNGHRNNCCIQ
UniProt Q92845: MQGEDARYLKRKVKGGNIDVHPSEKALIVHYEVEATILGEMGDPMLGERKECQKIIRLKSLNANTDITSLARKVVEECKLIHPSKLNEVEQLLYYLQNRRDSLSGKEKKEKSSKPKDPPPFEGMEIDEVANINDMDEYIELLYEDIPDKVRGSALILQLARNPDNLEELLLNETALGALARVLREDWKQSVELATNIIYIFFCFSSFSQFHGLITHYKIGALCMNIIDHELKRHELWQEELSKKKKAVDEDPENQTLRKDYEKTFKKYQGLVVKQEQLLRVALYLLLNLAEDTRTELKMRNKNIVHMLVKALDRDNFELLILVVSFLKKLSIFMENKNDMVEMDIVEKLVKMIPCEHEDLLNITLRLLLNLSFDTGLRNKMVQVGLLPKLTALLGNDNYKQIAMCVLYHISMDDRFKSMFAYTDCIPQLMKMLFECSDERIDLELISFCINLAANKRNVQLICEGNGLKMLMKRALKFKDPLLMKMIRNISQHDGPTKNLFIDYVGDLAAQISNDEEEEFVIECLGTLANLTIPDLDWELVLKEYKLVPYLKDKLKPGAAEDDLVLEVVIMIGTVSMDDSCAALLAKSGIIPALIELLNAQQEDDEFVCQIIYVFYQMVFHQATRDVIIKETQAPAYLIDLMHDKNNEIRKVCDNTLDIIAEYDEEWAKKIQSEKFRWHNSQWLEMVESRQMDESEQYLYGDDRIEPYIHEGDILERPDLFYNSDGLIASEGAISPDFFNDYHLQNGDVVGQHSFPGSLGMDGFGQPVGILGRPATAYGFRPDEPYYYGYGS
UniProt Q92882: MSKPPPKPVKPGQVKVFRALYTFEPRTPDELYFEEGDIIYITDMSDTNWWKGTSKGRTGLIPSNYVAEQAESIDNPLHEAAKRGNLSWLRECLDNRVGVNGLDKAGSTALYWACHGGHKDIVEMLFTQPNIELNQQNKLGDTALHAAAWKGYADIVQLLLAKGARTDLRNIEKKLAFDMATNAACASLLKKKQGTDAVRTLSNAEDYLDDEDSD
UniProt Q96DT7: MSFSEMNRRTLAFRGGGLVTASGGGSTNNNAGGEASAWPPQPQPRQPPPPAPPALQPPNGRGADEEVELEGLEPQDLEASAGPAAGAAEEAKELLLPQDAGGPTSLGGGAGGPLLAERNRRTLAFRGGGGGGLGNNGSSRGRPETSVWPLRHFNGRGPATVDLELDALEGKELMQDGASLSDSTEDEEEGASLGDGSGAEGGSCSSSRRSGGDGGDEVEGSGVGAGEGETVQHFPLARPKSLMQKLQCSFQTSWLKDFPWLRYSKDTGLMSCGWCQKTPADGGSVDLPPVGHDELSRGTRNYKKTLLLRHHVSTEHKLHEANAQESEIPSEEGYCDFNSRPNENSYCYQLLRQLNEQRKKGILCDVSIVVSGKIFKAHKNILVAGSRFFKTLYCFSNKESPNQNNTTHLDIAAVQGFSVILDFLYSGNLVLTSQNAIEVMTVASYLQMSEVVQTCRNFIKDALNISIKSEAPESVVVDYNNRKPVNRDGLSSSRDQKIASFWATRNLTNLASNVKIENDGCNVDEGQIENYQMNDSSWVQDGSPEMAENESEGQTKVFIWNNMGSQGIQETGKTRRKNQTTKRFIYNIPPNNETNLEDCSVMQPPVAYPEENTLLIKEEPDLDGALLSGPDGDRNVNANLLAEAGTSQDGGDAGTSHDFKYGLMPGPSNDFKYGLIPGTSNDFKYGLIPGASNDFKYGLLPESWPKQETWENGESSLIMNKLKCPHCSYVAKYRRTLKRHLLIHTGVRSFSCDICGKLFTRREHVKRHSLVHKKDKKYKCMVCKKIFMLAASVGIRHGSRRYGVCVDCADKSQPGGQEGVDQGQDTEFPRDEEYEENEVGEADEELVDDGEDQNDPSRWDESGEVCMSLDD
UniProt Q96BA8: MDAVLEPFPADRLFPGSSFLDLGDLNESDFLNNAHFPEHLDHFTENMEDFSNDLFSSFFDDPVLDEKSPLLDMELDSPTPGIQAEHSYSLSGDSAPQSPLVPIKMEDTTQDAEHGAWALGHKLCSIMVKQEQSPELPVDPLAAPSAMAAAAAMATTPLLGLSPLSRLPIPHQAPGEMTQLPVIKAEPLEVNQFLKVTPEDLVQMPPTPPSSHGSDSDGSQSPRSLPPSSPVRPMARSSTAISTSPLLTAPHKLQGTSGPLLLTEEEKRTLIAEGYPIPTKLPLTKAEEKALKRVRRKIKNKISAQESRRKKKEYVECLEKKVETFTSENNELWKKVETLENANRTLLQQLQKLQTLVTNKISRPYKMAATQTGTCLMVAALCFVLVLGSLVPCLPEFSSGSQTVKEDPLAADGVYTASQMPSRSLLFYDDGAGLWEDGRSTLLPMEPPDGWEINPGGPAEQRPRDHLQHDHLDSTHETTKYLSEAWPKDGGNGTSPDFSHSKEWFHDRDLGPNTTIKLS
UniProt Q96EI5: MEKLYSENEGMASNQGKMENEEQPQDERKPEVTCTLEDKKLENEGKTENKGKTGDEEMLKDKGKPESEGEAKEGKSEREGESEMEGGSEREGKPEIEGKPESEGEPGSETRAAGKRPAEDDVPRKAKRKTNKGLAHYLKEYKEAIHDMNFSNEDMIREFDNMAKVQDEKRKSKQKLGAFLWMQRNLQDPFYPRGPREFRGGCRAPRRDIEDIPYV
UniProt Q92890: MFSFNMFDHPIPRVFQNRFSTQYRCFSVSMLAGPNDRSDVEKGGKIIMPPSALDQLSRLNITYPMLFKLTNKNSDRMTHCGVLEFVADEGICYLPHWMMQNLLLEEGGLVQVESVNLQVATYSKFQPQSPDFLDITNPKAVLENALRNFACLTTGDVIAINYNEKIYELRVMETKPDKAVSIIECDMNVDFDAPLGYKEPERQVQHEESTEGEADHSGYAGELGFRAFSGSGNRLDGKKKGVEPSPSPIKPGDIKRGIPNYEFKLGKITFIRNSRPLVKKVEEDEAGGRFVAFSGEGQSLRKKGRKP
UniProt Q96AJ1: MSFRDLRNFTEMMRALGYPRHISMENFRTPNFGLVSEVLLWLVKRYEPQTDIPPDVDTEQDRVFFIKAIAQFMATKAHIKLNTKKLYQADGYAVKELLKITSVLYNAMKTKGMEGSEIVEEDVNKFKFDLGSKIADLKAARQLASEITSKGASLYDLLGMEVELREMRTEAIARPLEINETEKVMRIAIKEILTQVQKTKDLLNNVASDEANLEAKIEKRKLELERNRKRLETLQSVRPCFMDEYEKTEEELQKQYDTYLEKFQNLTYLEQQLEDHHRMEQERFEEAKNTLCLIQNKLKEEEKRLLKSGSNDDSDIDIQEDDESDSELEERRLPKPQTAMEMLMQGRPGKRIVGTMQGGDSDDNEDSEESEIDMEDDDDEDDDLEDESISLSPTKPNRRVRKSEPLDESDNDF
UniProt Q96BP3: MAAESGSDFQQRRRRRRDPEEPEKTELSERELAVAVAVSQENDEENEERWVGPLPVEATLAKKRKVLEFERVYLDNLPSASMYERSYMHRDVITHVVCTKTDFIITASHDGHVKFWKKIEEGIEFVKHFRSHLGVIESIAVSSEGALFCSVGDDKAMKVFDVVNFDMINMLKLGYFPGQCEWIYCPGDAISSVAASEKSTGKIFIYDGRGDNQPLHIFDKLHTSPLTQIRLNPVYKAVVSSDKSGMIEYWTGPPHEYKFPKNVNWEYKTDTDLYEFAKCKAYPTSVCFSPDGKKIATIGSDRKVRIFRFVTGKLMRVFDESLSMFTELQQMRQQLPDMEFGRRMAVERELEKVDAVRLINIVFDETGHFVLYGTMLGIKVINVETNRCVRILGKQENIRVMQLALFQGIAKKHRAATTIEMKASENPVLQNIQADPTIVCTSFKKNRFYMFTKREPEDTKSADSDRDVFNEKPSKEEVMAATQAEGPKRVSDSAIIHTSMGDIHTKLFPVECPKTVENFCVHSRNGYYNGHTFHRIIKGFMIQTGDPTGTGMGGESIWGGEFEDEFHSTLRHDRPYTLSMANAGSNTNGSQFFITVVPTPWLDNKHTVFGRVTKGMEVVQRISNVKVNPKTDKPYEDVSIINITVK
UniProt Q96C92: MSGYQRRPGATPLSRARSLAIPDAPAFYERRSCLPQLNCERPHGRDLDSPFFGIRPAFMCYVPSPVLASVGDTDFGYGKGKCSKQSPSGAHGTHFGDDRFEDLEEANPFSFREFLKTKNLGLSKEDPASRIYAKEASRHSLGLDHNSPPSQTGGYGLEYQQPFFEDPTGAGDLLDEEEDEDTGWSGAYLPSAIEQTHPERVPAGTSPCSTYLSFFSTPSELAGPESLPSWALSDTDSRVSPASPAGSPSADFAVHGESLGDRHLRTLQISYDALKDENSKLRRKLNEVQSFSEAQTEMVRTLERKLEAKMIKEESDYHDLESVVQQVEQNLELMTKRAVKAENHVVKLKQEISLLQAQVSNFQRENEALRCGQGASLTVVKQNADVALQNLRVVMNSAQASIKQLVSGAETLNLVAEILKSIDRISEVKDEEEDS

| Target | log2 fold change |
| --- | --- |
| TSR2 (peptide sequence: AKWLGGAVEDYFMR, peptide start residue: 43) (UniProt Q969E8) | 0.109 |
| C11orf24 (peptide sequence: TATLATLATR, peptide start residue: 204) (UniProt Q96F05) | 0.227 |
| NSUN4 (peptide sequence: TLALLQTGCCR, peptide start residue: 188) (UniProt Q96CB9) | 0.439 |
| UniProt Q92888 (peptide sequence: EILHHVNQAVR, peptide start residue: 597) | 0.175 |
| TTC28 (peptide sequence: ALSNLGNFHCSR, peptide start residue: 596) (UniProt Q96AY4) | 0.691 |
| UniProt Q96D53 (peptide sequence: QLLANDPFFRVPAVVK, peptide start residue: 299) | 0.242 |
| UniProt Q96FZ2 (peptide sequence: LHFEKDADSSER, peptide start residue: 57) | -0.256 |
| SH3KBP1 (peptide sequence: GVGFGDIFKDKPIK, peptide start residue: 212) (UniProt Q96B97) | 0.344 |
| EXOC4 (peptide sequence: EFLTVYIK, peptide start residue: 526) (UniProt Q96A65) | -0.154 |
| ATG4C (peptide sequence: FISAWNNMK, peptide start residue: 16) (UniProt Q96DT6) | 0.00855 |
| UniProt Q93096 (peptide sequence: FLITHNPTNATLNK, peptide start residue: 16) | 0.283 |
| MRPL38 (peptide sequence: EYFGEKTDPKEK, peptide start residue: 76) (UniProt Q96DV4) | 0.47 |
| KIFAP3 (peptide sequence: MIPCEHEDLLNITLR, peptide start residue: 352) (UniProt Q92845) | -0.0912 |
| OSTF1 (peptide sequence: LAFDMATNAACASLLKK, peptide start residue: 175) (UniProt Q92882) | 0.614 |
| GRAMD1A (peptide sequence: LLINSVFHVGAER, peptide start residue: 370) (UniProt Q96CP6) | 0.177 |
| GTF3C6 (peptide sequence: EGEENIGGVEWLQIK, peptide start residue: 115) (UniProt Q969F1) | -0.0976 |
| ZBTB10 (peptide sequence: NLTNLASNVK, peptide start residue: 506) (UniProt Q96DT7) | -0.283 |
| UniProt Q96DY7 (peptide sequence: TGSLPHSSEQLLGHK, peptide start residue: 577) | 0.216 |
| UniProt Q96BA8 (peptide sequence: TLIAEGYPIPTKLPLTK, peptide start residue: 269) | 0.815 |
| MRPL24 (peptide sequence: GTMIPSEAPLLHR, peptide start residue: 106) (UniProt Q96A35) | 0.191 |
| TCEAL4 (peptide sequence: KLENEGKTENK, peptide start residue: 40) (UniProt Q96EI5) | 0.62 |
| USP7 (peptide sequence: DLLQFFKPRQPK, peptide start residue: 863) (UniProt Q93009) | -0.631 |
| UniProt Q92890 (peptide sequence: MFSFNMFDHPIPR, peptide start residue: 1) | -0.352 |
| CLUAP1 (peptide sequence: EILTQVQK, peptide start residue: 191) (UniProt Q96AJ1) | 0.248 |
| PPWD1 (peptide sequence: WVGPLPVEATLAK, peptide start residue: 50) (UniProt Q96BP3) | 0.295 |
| ENTR1 (peptide sequence: LKQEISLLQAQVSNFQR, peptide start residue: 348) (UniProt Q96C92) | 0.24 |

Reformatted with bars between the fields: part of the list above.
Target | log2 fold change
TSR2 (peptide sequence: AKWLGGAVEDYFMR, peptide start residue: 43) (UniProt Q969E8) | 0.109
C11orf24 (peptide sequence: TATLATLATR, peptide start residue: 204) (UniProt Q96F05) | 0.227
NSUN4 (peptide sequence: TLALLQTGCCR, peptide start residue: 188) (UniProt Q96CB9) | 0.439
UniProt Q92888 (peptide sequence: EILHHVNQAVR, peptide start residue: 597) | 0.175

— the supplement of paper PMC12819154, “High-throughput peptide-centric local stability assay extends protein–ligand identification to membrane proteins, tissues and bacteria” (Nature Structural & Molecular Biology, 2025)
